This data set is described as follows: Particle size via laser diffraction. The format is physicochemical. As to conditions: powders dispersed in Span85:cyclohexane 0.1% w/v. As to the method: Particle size via laser diffraction. Particle size distributions were measured by laser diffraction (Spraytec® S, Malvern Instruments, Worcestershire, UK). The powders were dispersed in Span85:cyclohexane 0.1% w/v.

In the case of `COc1ccc(CC(C)NCC(O)c2ccc(O)c(NC=O)c2)cc1.COc1ccc(CC(C)NCC(O)c2ccc(O)c(NC=O)c2)cc1.O.O.O=C(O)/C=C/C(=O)O` (stereo not drawn) [FF raw material, formoterol fumarate dihydrate], the “d(v0.1)” value worked out at 0.62 μm, the “d(v0.5)” value came out at 1.69 μm and the “d(v0.9)” value was 3.27 μm.
